# According to paper PMC7819943, “Rice protein-binding microarrays: a tool to detect cis-acting elements near promoter regions in rice”:
# Protein sequences, listed by entry. Tags and fused reporters are not part of them.
# UniProt Q0JBA9, entry or part of it: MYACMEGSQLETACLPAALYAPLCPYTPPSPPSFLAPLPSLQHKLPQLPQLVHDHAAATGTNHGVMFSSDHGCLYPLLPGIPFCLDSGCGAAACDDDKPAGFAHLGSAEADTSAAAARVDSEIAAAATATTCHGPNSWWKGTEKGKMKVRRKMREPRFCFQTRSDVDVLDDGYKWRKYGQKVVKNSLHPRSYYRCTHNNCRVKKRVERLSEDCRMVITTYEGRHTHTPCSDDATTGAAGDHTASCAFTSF
# The other results are listed elsewhere or left out.
# Target: OsWRKY34 (Oryza sativa, UniProt Q0JBA9 1-250)
# Experiment: protein-binding microarray (RPBM); PBS, 2% BSA, 51.3 ng/ul salmon testes DNA, 50 uM zinc acetate, 200 nM TF, 25 C, 1 h; high values mean tight binding
# Conditions: protein: recombinant; tags: N-terminal polyhistidine and DsRed monomer fusion (pET32a); label: CyDye5-dUTP incorporated in the synthesized complementary strand; 3' TTTTT single-stranded linker to array surface; dsDNA, one strand shown
# How it was run: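 Ni–NTA purification followed expression in E. coli BL21-CodonPlus of transcription factors fused N-terminally to a polyhistidine tag and DsRed. At 200 nM in PBS with 2% BSA, salmon testes DNA and 50 µM zinc acetate, the protein was incubated for 1 h at 25 °C with a custom Agilent array that had been primer-extended with Cy5-dUTP and blocked with 2% BSA. After washing, the array was read on an Axon 4000B scanner. The binding signal is per-feature fluorescence intensity in arbitrary units.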
row,Sequence,binding signal
1,TCTCTCTCTCTCTCTCTCTCTACTCTCTCCCTACAAGTTTCGGAGTCACCTAGTGCAG,10100 fluorescence intensity (a.u.)
2,CTATCGCCACATCTCACCGGCTGCAATAATTGGGCATATCCGGAGTCACCTAGTGCAG,9190 fluorescence intensity (a.u.)
3,ATAAGGGGTGAGGATCATAGCTCATGTTGTTTGACGGTTTCGGAGTCACCTAGTGCAG,9440 fluorescence intensity (a.u.)
4,GTTCATCGTATTTTTTTTTCTTTGAGTACCATTGACATGTCGGAGTCACCTAGTGCAG,8710 fluorescence intensity (a.u.)
5,TACTACTCTTCTTCTTCTTCTTCTCTTCTTCTTCATTGGACGGAGTCACCTAGTGCAG,9400 fluorescence intensity (a.u.)
6,TCCCAACGCCCAACCTGCACACACTTCACTCTCGCTGCTGCGGAGTCACCTAGTGCAG,9290 fluorescence intensity (a.u.)
7,AGCTGGTCATATTCTATGTTGATTATCTTCATGGTATGAACGGAGTCACCTAGTGCAG,9730 fluorescence intensity (a.u.)
8,GCCACTGCCGCCTCGCCTCGCCTCGAGCTCCCACCGCCGCCGGAGTCACCTAGTGCAG,9300 fluorescence intensity (a.u.)
9,CCAAAATTTTAAGGTGTTTGGATGATATGGCTACCACTTACGGAGTCACCTAGTGCAG,8090 fluorescence intensity (a.u.)
10,AGAAGTTGTTCTTCCCATCTTGTACCATCTTATATGCACTCGGAGTCACCTAGTGCAG,8600 fluorescence intensity (a.u.)
11,ATATAAGTGACTTTGAGGTTTTGCTTGCACTGTTTGATCACGGAGTCACCTAGTGCAG,8490 fluorescence intensity (a.u.)
12,TCCTGTCACTCGGCCACACTTCAATCGCATCCAAAACATCCGGAGTCACCTAGTGCAG,8890 fluorescence intensity (a.u.)
13,AACAGATGTATTGCACCATAATTTTGTAGCTACCTCTCAACGGAGTCACCTAGTGCAG,9030 fluorescence intensity (a.u.)
14,ACCGTATCGTTGTCTGATTCGTCGATTCGTTCCATCATTACGGAGTCACCTAGTGCAG,9330 fluorescence intensity (a.u.)
15,CTCTGCTCTCTCGCCATTGCCGCCGCGGCGCCGCCTCCTCCGGAGTCACCTAGTGCAG,9210 fluorescence intensity (a.u.)
16,CGGAGGGAGGCGGAGGCGGTGGTGGTGGTGGTGGTGCCGGCGGAGTCACCTAGTGCAG,12500 fluorescence intensity (a.u.)
17,GATAATATTCACCTGTTCTTTCAATGCCCTTTTAGCAGAACGGAGTCACCTAGTGCAG,8510 fluorescence intensity (a.u.)
18,ATAAAACAAATGATCAAACGTTGAATAAAAAGTCAACGGCCGGAGTCACCTAGTGCAG,11100 fluorescence intensity (a.u.)
19,GAATTTTAATTAATCACGTATTGGGTTTTTAGATGGACTCCGGAGTCACCTAGTGCAG,9060 fluorescence intensity (a.u.)
20,AAAGTTCATATGGTGTTCTAACAGGAGGTTTGTAATTTGTCGGAGTCACCTAGTGCAG,8270 fluorescence intensity (a.u.)
21,TATATATATATATATATATATATATTTCATATGAAACACACGGAGTCACCTAGTGCAG,8460 fluorescence intensity (a.u.)

# Taken from above.
# Entry of TATATATATATATATATATATATATTTCATATGAAACACACGGAGTCACCTAGTGCAG under binding signal: 8460 fluorescence intensity (a.u.)
# Entry of TACTACTCTTCTTCTTCTTCTTCTCTTCTTCTTCATTGGACGGAGTCACCTAGTGCAG under binding signal: 9400 fluorescence intensity (a.u.)
# Entry of GTTCATCGTATTTTTTTTTCTTTGAGTACCATTGACATGTCGGAGTCACCTAGTGCAG under binding signal: 8710 fluorescence intensity (a.u.)

# (cont.)

row,Sequence,binding signal
1,CCTTTTGCGTTCCATACTCAACTCATCTTGCCGAACAAACCGGAGTCACCTAGTGCAG,8700 fluorescence intensity (a.u.)
2,CTTTTTCCACACCTCACTTGCTAGATCTACCACCAAAAAGCGGAGTCACCTAGTGCAG,10500 fluorescence intensity (a.u.)
3,CTGATCCTTCGCCCTCGATTCGCTGCACTTGATCCGCCGCCGGAGTCACCTAGTGCAG,9570 fluorescence intensity (a.u.)
4,AGCAAGTCATGACATCAAACTAGTCCATCGCATTCAAACTCGGAGTCACCTAGTGCAG,8210 fluorescence intensity (a.u.)
5,CTACTACGTACTAGCATAATGCTTTGTTTTTTTCCATTACCGGAGTCACCTAGTGCAG,8540 fluorescence intensity (a.u.)
6,CTCTATACCATACGCCATCTCCATCATCTCTCGATCCATCCGGAGTCACCTAGTGCAG,11300 fluorescence intensity (a.u.)
7,CCGTTGACTTGGATTTGTTCCTTTTTCATTTTTTATCGTTCGGAGTCACCTAGTGCAG,14700 fluorescence intensity (a.u.)
8,TCCAACCGCTCGATCACCGCCGGTCTGACCGGCATACACACGGAGTCACCTAGTGCAG,10100 fluorescence intensity (a.u.)
9,AATTTGAATTGCATTTGTTCATTTGGCCTCCTGGTAAGTACGGAGTCACCTAGTGCAG,8810 fluorescence intensity (a.u.)
10,GCTCTGCACGTGCCCTGCGGTTGCTCCATGTTGATAGTAGCGGAGTCACCTAGTGCAG,8530 fluorescence intensity (a.u.)
11,TCTGCTGTATCCTTTCTTTGTTGGATTGTTTCTTCATATTCGGAGTCACCTAGTGCAG,15600 fluorescence intensity (a.u.)
12,GAAATGCACGGTTCTTTCTCGTTTCTCTGGCCATTTGATTCGGAGTCACCTAGTGCAG,10100 fluorescence intensity (a.u.)
13,CTGCCACTGCTAAAATATTTGTTCAAAATTTTGACTCTTTCGGAGTCACCTAGTGCAG,8090 fluorescence intensity (a.u.)
14,TGGGCACAAGGGTGTTTTGTATGGTCTCCTCAGGGAAATTCGGAGTCACCTAGTGCAG,9360 fluorescence intensity (a.u.)
15,TCCTATGTTTTTTTTTCTATTTCTTCATTTTTTCAATCCTCGGAGTCACCTAGTGCAG,11400 fluorescence intensity (a.u.)
16,GCGGTGGGAGGCTACTGCTGAGCGGGGCGGCGGCAGGACTCGGAGTCACCTAGTGCAG,8070 fluorescence intensity (a.u.)
17,TGATTGTCATGTTGACAAGCTATTGCTGTTCTTCAGTTTGCGGAGTCACCTAGTGCAG,8580 fluorescence intensity (a.u.)
18,TTATCCTCTTCATTGACTCCACCTTTGCTTCCTTCTCTACCGGAGTCACCTAGTGCAG,9670 fluorescence intensity (a.u.)
19,TTTCCCAACTCAATTTCCTCGATTTTTACGCACACGCTTTCGGAGTCACCTAGTGCAG,10000 fluorescence intensity (a.u.)
20,TAAATCTTGACCCTTTACTGCTAGCCTCAATGCATCGATCCGGAGTCACCTAGTGCAG,8180 fluorescence intensity (a.u.)
21,TTTTTTTCTTATTTTCTGTGTGTGTGTGTGTGCCTGGAATCGGAGTCACCTAGTGCAG,8050 fluorescence intensity (a.u.)

row,Sequence,binding signal
1,GTGTGTTTTATTGCTTAAATATGTGAATGTCTTTTTTACACGGAGTCACCTAGTGCAG,9270 fluorescence intensity (a.u.)
2,CTCACTACGAGTTTATATATATTCACATTTGCCTAAACTTCGGAGTCACCTAGTGCAG,8110 fluorescence intensity (a.u.)
3,TCATTTCAAGCGCCTTTTTTTTACACATAATACGATCAAGCGGAGTCACCTAGTGCAG,9170 fluorescence intensity (a.u.)
4,GAGGAGGAGCCTTAGGTAGTGGTGGATGGGGAGGAGGAGGCGGAGTCACCTAGTGCAG,10200 fluorescence intensity (a.u.)
5,GATTTTGTTCATTAATATCGTGTCTGTCCATGTCCAAGGACGGAGTCACCTAGTGCAG,9700 fluorescence intensity (a.u.)
6,AACAATTTTTGGGTGCTTGTTCATATTTCATGTCCATGGTCGGAGTCACCTAGTGCAG,8860 fluorescence intensity (a.u.)
7,TAAAATTCTGTTCCGCCGCGTTTGCCCTCGTCAACTAATCCGGAGTCACCTAGTGCAG,9750 fluorescence intensity (a.u.)
8,AGTGTAGGATTTTAATTCCTTTATTTTTCCTCCATTATTCCGGAGTCACCTAGTGCAG,8250 fluorescence intensity (a.u.)
9,AGCTTTGTTGTTTCTTGCACCGATCGTCGTTTTACTCGTGCGGAGTCACCTAGTGCAG,15000 fluorescence intensity (a.u.)
10,TCCATTTCCCGCCGCCTCCCCTCTCGCGATCCATATCCATCGGAGTCACCTAGTGCAG,8050 fluorescence intensity (a.u.)
11,CTATTGTTGTCTGTTTCTATCATTCAGCTGCGGGCCCAGGCGGAGTCACCTAGTGCAG,8940 fluorescence intensity (a.u.)
12,CCGCACGGGCACCACCTCGCCGCCCGCCACCACCGCTTCCCGGAGTCACCTAGTGCAG,10800 fluorescence intensity (a.u.)
13,AGAAAGTTTCCTTTGATTTTTTTTGGTGCAACCTTTTTTCCGGAGTCACCTAGTGCAG,8040 fluorescence intensity (a.u.)
14,GCCCATAACCCACCACGCGTCTCTTCAAATTTCCGCCCCTCGGAGTCACCTAGTGCAG,9290 fluorescence intensity (a.u.)
15,ATTTTGAGTTTTTGCTTGCATTGTTTGATCACTCGTCTTACGGAGTCACCTAGTGCAG,9530 fluorescence intensity (a.u.)
16,TTGACCTTTTCTTTGTTGAACGTTGACCGTTCCGTCTTATCGGAGTCACCTAGTGCAG,14300 fluorescence intensity (a.u.)
17,CGACGCCGCCACCGTCCACTCCGCCGCCGCCATCGTCCTCCGGAGTCACCTAGTGCAG,10300 fluorescence intensity (a.u.)
18,CTCGCTCTCCCACTCGCACCTGCGCCGCATCCCCAATCCCCGGAGTCACCTAGTGCAG,8750 fluorescence intensity (a.u.)
19,TCGACCTTCCTTTCCTGTCGCCATCTTCACCGTCTTGCCACGGAGTCACCTAGTGCAG,9710 fluorescence intensity (a.u.)
20,CTTGAGTCTTCAGTTTGTTATTTTTCAGTTTCGATTCTCACGGAGTCACCTAGTGCAG,10500 fluorescence intensity (a.u.)
21,TTGTACTACTTATGAACCGTTAATCCACTGTCCTGTATGTCGGAGTCACCTAGTGCAG,9380 fluorescence intensity (a.u.)

row,Sequence,binding signal
1,TCGCCCCAAATCCTCACGCCCGGTCATGAAATTGTATCCACGGAGTCACCTAGTGCAG,10000 fluorescence intensity (a.u.)
2,TCCTTGGTCTGTGTGTCAAGATGAAATATGACTATCAAAACGGAGTCACCTAGTGCAG,8900 fluorescence intensity (a.u.)
3,GTCCCCTACCAATAGCCACATTATTTGACTGGACTATAAACGGAGTCACCTAGTGCAG,8190 fluorescence intensity (a.u.)
4,ACCTTCCTAGTTCTTCCCACACGTTCGTTACTCCAGCACCCGGAGTCACCTAGTGCAG,10500 fluorescence intensity (a.u.)
5,GGTAAACTCTATTTTTTAGCCCTTATATGTTATTTTTAATCGGAGTCACCTAGTGCAG,8090 fluorescence intensity (a.u.)
6,GCCGTATCATATCCATGACCTTTGTCCTTGCGTTGCCGCCCGGAGTCACCTAGTGCAG,10700 fluorescence intensity (a.u.)
7,GGGCGCCTCTCTGTCAGTTTCTCCACTACACTGTGCGCGTCGGAGTCACCTAGTGCAG,9940 fluorescence intensity (a.u.)
8,GCTTCCAATGGATGTCTTCCTTTCCTGAGCTGCTGTCTCCCGGAGTCACCTAGTGCAG,8680 fluorescence intensity (a.u.)
9,CATTTCCGTTTTCATTTCCATATTTTTTACCATTTCCATTCGGAGTCACCTAGTGCAG,10000 fluorescence intensity (a.u.)
10,GGTTTCCGTGTCTAACTTTAACTGTCCGTCTTATATGAAACGGAGTCACCTAGTGCAG,11000 fluorescence intensity (a.u.)
11,TATTGAGTGTATCCATCATAGATTTTATGTTTCATATTTTCGGAGTCACCTAGTGCAG,8820 fluorescence intensity (a.u.)
12,GAGTCACACAAAGCCTGGCCTTTTTGCGTTGCGCAACCCGCGGAGTCACCTAGTGCAG,8490 fluorescence intensity (a.u.)
13,CGCTGCTCGCCCTGTGCCTCATTCCGCCTTGACAAATGTCCGGAGTCACCTAGTGCAG,12400 fluorescence intensity (a.u.)
14,GTGCTCATCCGCCTCCTCGGGTCGTCTCCATCGACCTCCTCGGAGTCACCTAGTGCAG,9120 fluorescence intensity (a.u.)
15,ACAGTCAACCGAAATATTTGACTGTCCAATTTTTATTACACGGAGTCACCTAGTGCAG,10000 fluorescence intensity (a.u.)
16,TGCATTTTTTATTGTTATCGATCTTTTATTTTTTACTGAACGGAGTCACCTAGTGCAG,9270 fluorescence intensity (a.u.)
17,ATTTACCAGATTTGGGCTGCAATTATTGGGCGCCATTTTTCGGAGTCACCTAGTGCAG,8890 fluorescence intensity (a.u.)
18,GGTGTAGGGTTTTAGTTTACGAGATATATTTACGAATTTGCGGAGTCACCTAGTGCAG,10500 fluorescence intensity (a.u.)
19,CTCCGCCATCCACTCCCACTACTCTACCATCGTGCGCGCGCGGAGTCACCTAGTGCAG,9830 fluorescence intensity (a.u.)
20,CCTCCATCTATGTCCTGCTGTCCAACATCTACGCGGATGCCGGAGTCACCTAGTGCAG,9400 fluorescence intensity (a.u.)
21,CACGGTCCTGCTCGCCCTGTCCAGTCACGTTCAATCTTTTCGGAGTCACCTAGTGCAG,13600 fluorescence intensity (a.u.)
